Measurements reported in paper PMC7049960.

T1: ATF4 bZIP TAP construct (mouse) (UniProt Q06507)
T1 sequence: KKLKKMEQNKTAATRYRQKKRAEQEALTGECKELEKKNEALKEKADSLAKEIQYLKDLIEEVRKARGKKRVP


Biological target: T1, ATF4 bZIP TAP construct (mouse)
Assay: affinity purification with mass spectrometry; tandem affinity purification of the FLAG- and S-tagged ATF4 bZIP domain expressed in mouse TA muscle fibers in vivo (16 mice, 7 days after transfection); pooled muscle extracts, anti-FLAG magnetic beads, elution with 3X-FLAG peptide, then S-protein agarose; 50 mM HEPES pH 7.0, 150 mM NaCl, 5 mM MgCl2, 2 mM EGTA, 0.1-0.5% Triton X-100, 4 °C; LC-MS/MS; two independent experiments; empty TAP construct as control

Row | binding | Binder
1 | binds | syncoilin (protein, UniProt Q9EPM5 1-470) MASPEPLRGGDGARASREPHTEASFPLQESESPKEAKTFNPEATLSLEGTVNLEDILYLGASGDFEESFYEEEYEKPALTLFIDESRQPDEALGLEEPVRPEEMLSVEESVTPDEVQISEQPVEPAKSPTACEGEMVATEGSLPAQPIPNTEEDPLSVEDLERLEARFQQCVQAVSQLEEERDQLIHELVLLREPALQEVQQVHQDILAAYKLHAQAELERDGLREEIRTVKQKLFKVTKECVAYQYQLECRQQDVAQFADCREALTTRAAQLSEELTQLRDACQKQKEQLQQQLEAPPTQSDGHFLQESRRLSTQFENLMAESRQGLEEEYEPQLLRLLERKEAGTKALQDTQAEIQEMREALRPLEAEARQLQLQNRNLEDQITLVRQKRDEEVQQYREQLEEMEERQRQLRSGVQVQQQKNKEMERLRMSLAEELSTYKAMLPKSLEQADAPTSQAGGVEAQSPGTV
2 | binds | cavin-2/SDPR (protein, UniProt Q63918 1-418) MGEDAAQAEKFQHPNTDMLQEKPSSPSPMPSSTPSPSLNLGSTEEAIRDNSQVNAVTVHTLLDKLVNMLDAVRENQHNMEQRQINLEGSVKGIQNDLTKLSKYQASTSNTVSKLLEKSRKVSAHTRAVRERLERQCVQVKRLENNHAQLLRRNHFKVLIFQEESEIPASVFVKEPVPSAAEGKEELADENKSLEETLHNVDLSSDDELPRDEEALEDSAEEKMEESRAEKIKRSSLKKVDSLKKAFSRQNIEKKMNKLGTKIVSVERREKIKKSLTPNHQKASSGKSSPFKVSPLSFGRKKVREGESSVENETKLEDQMQEDREEGSFTEGLSEASLPSGLMEGSAEDAEKSARRGNNSAVGSNADLTIEEDEEEEPVALQQAQQVRYESGYMLNSEEMEEPSEKQVQPAVLHVDQTA
3 | binds | leucine zipper protein 1 (LUZP1) (protein, UniProt Q8R4U7 1-1068) MAELTNYKDAASNRHLRFKLQSLSRRLDELEEATKNLQRAEDELLDLQDKVIQAEGSDSSTLAEIEVLRQRVLKIEGKDEEIKRAEDLCHTMKEKLEEEENLTRELKSEIERLQKRMVDLEKLEEALSRSKNECSQLCLSLNEERNLTKKISSELEMLRVKVKELESSEDRLDKTEQSLVSELEKLKSLTLSFVNERKYLNEKEKENEKIIKELTQKLEQNKKMNRDHMRNASTFLERNDLRIEDGISSTLSSKESKRKGSLDYLKQVENETRDKSENEKNRNQEDNKVKDLNQEIEKLKTQIKHFESLEEELKKMRAKNNDLQDNYLTELNRNRSLASQLEEIKLQVRKQKELGNGDIEGEDAFLLGRGRHERTKLKGHGSEASVSKHTSRELSPQHKRERLRNREFALSNEHYSLSSKQASSPVFTNKRAAKASNMGMGTDSGTQETKRTEDRFAPGSSHSEGKRGREQPSVLSRYPPAAQEHTKVWKGAPKPGTESGLKGKVEKTTRTFSDSTHVSVPNDIVGKGDKTSDLSSEAHCGKRGQVPGHASQGTQAVESSCSKAIGALSSSQKASSEGLSKGKKTANGLAADANFSNSKAPILSKYPYSSRSQENILQGFSLPNKEGVDQPVAVVMEDSSQHEALRCRVIKSSGREKPDSDDDLDIESFVTAKLVNTTITPEPEPKPQPNSREKVKSRGGTRTALFENDKNAAIENDSVKPTRPSSNAIEFPDANCAGVKNQRPFSPREALRSRAIIKPVIIDKDVKKIMGGSGTEVVLEKQKSTSKSVTSKVTSSITIYPSDSSGPRAVPSEAPRERHTSTSNIQVGPPELTAISNHVSSPLELSIHKHDITLQLTEAERVGDGSPKNRAEMVVSRSSILIKPSESVEKNSHVPPAETIRWKSHSASSDSRHITVRNAWKSKRDLKCSEDPPTGIGRNMEATNAYTQRPCTDFLELEQPRSQPSEQGARRVGNSGDAPELSPRRTQSSLTASEVLTRRDRMGGAITAASCNHSSSMEEGEDSTFVTSRRIHNPLEHSELPGKQGLPEPEPVWTEERLHPAKPYAEED
4 | binds | C/EBPγ (protein, UniProt P53568 1-150) MSKLSQPATTPGVNGISVIHTQAHASGLQQVPQLVPAGPGGGGKAVPPSKQSKKSSPMDRNSDEYRQRRERNNMAVKKSRLKSKQKAQDTLQRVNQLKEENERLEAKIKLLTKELSVLKDLFLEHAHSLADNVQPISTETTATNSDNPGQ
5 | binds | cavin-4/MURC (protein, UniProt A2AMM0 1-362) MEHNGSASNAGKIHQNRLSSVTEDEDQDAALTIVTVLDRVASVVDSVQASQKRIEERHREMGNAIKSVQIDLLKLSQSHSNTGYVVNKLFEKTRKVSAHIKDVKARVEKQQVRVTKVETKQEEIMKKNKFRVVIFQEDIPCPASLSVVKDRSLPENQEEAEEVFDPPIELSSDEEYYVEESRSARLRKSGKEHIDHIKKAFSRENMQKTRQTLDKKVSGIRTRIVTPERRERLRQSGERLRQSGERLRQSGERFKKSISSAAPSKEAFKIRSLRKAKDPKAEGQEVDRGMGVDIISGSLALGPIHEFHSDEFSETEKEVTKGGYSPQEGGDPPTPEPLKVTFKPQVRVEDDESLLLELKQSS
6 | binds | cavin-1/PTRF (protein, UniProt O54724 1-392) MEDVTLHIVERPYSGFPDASSEGPEPTQGEARATEEPSGTGSDELIKSDQVNGVLVLSLLDKIIGAVDQIQLTQAQLEERQAEMEGAVQSIQGELSKLGKAHATTSNTVSKLLEKVRKVSVNVKTVRGSLERQAGQIKKLEVNEAELLRRRNFKVMIYQDEVKLPAKLSVSKSLKESEALPEKEGDELGEGERPEDDTAAIELSSDEAVEVEEVIEESRAERIKRSGLRRVDDFKKAFSKEKMEKTKVRTRENLEKTRLKTKENLEKTRHTLEKRMNKLGTRLVPVERREKLKTSRDKLRKSFTPDHVVYARSKTAVYKVPPFTFHVKKIREGEVEVLKATEMVEVGPEDDEVGAERGEATDLLRGSSPDVHTLLEITEESDAVLVDKSDSD
7 | binds | C/EBPδ (protein, UniProt Q00322 1-268) MSAALFSLDSPVRGTPWPTEPAAFYEPGRVDKPGRGPEPGDLGELGSTTPAMYDDESAIDFSAYIDSMAAVPTLELCHDELFADLFNSNHKAAGAGGLELLQGGPTRPPGVGSVARGPLKREPDWGDGDAPGSLLPAQVAVCAQTVVSLAAAAQPTPPTSPEPPRGSPGPSLAPGTVREKGAGKRGPDRGSPEYRQRRERNNIAVRKSRDKAKRRNQEMQQKLVELSAENEKLHQRVEQLTRDLAGLRQFFKKLPSPPFLPPTGADCR

These are yes or no findings as the source states them, for the method shown. Binding seen in cells or lysates may run through a third protein. These calls come from enrichment with a bait or labelling near it, and not all partners need be listed.
